US5225411A, “Disubstituted polymethyleneimines” (priority 1990, dated 1993)

Tested on: Chinese Hamster Pulmonary Line DC-3F/AD
Test: Increase in the cytotoxicity of actinomycin D on the Chinese hamster pulmonary line DC-3F/AD;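 also: DC-3F/AD is an extremely resistant cell line whose resistance factor exceeds 10,000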
Type: cell-based
Settings: 4 days

COC(=O)C1=C(C)NC(C)=C(C(=O)OC)C1c1ccccc1[N+](=O)[O-] [NIFEDIPINE]
Reversion Factor (RF) (compound 5 μM): < 11 | Reversion Factor (RF) (compound 10 μM): TOX | Reversion Factor (RF) (compound 20 μM): TOX
